# Experimental data from the supplement of paper PMC4604168 (melanoma cell lines).
# The list shows a part of the results. Single values are uncertain, as repeats are few or missing.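 Cells were imaged in 1,536-well plates, and nuclei stained with an antibody against cleaved PARP were counted against all DNA-stained nuclei to give the apoptosis fraction. Screening doses were chosen to leave most cells alive, and resting and induced cleaved-PARP levels differ strongly between cell lines.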
# Tested on: CBRC013 (line from a melanoma biopsy)
# Assay: cleaved PARP positive nuclei fraction relative to DMSO control; melanoma cells; higher = more apoptosis
# Conditions: library dose: low library concentration; 72 h
row,SMILES,cleaved PARP positive nuclei fraction
1,"C=CCn1c(=O)c2cnc(Nc3ccc(N4CCN(C)CC4)cc3)nc2n1-c1cccc(C(C)(C)O)n1 + O=S(=O)(c1ccccc1)N(CC(F)(F)F)c1ccc(C(O)(C(F)(F)F)C(F)(F)F)cc1 [T0901317] (first compound 0.02 µM, partner dose 1.4 µM)",159%
2,"O=C(Nc1cccc(Cl)c1)Nc1ncc(CCNc2ncnc3ccsc23)s1 + COc1cc(N2CCC(N3CCN(C)CC3)CC2)ccc1Nc1ncc(Cl)c(Nc2ccccc2S(=O)(=O)C(C)C)n1 [NVP-TAE684] (first compound 0.0008 µM, partner dose 0.08 µM)",298%
3,"C[C@]1(c2nc3c(C(N)=O)cccc3[nH]2)CCCN1 [Veliparib] + COc1cc2ncnc(Nc3ccc(Oc4ccccc4)cc3)c2cc1OC [SrcI1] (first compound 1.4 µM, partner dose 2 µM)",166%
4,"Cn1c(Nc2ccc(C(F)(F)F)cc2)nc2cc(Oc3ccnc(-c4ncc(C(F)(F)F)[nH]4)c3)ccc21 + COc1ccc(COc2ccc(Cc3cnc(N)nc3N)cc2OC)cc1 [GW2580] (first compound 0.08 µM, partner dose 1 µM)",130%
5,"COCC[n+]1c2c(n(Cc3cnccn3)c1C)C(=O)c1ccccc1C2=O + COc1ccc(COc2ccc(Cc3cnc(N)nc3N)cc2OC)cc1 [GW2580] (first compound 0.0004 µM, partner dose 1 µM)",65%
6,"Cc1ccc(NC(=O)c2cccc(N(C)C)c2)cc1NC(=O)c1ccc(O)cc1 + COC(=O)c1sccc1S(=O)(=O)Nc1ccc(Nc2ccccc2)cc1OC [GSK0660] (first compound 2 µM, partner dose 1 µM)",129%
7,"COCC[n+]1c2c(n(Cc3cnccn3)c1C)C(=O)c1ccccc1C2=O + CC(C)CCN1c2nc(Nc3cc(F)c(O)c(F)c3)ncc2N(C)C(=O)C1C [BID1870] (first compound 0.0004 µM, partner dose 0.2 µM)",81.9%
8,"CC(C)(C)c1cnc(CSc2cnc(NC(=O)C3CCNCC3)s2)o1 + Cc1cc([N+](=O)[O-])ccc1NS(=O)(=O)c1cc(Cl)ccc1Cl [FH535] (first compound 0.01 µM, partner dose 1 µM)",283%
9,"Cc1ccc(NC(=O)c2cccc(N(C)C)c2)cc1NC(=O)c1ccc(O)cc1 + CCCCCCCCCCCC1=C(O)C(=O)C=C(O)C1=O [Embelin] (first compound 2 µM, partner dose 1.2 µM)",134%
10,"Cc1ccc(NC(=O)c2cccc(N(C)C)c2)cc1NC(=O)c1ccc(O)cc1 + COc1cc(N2CCC(N3CCN(C)CC3)CC2)ccc1Nc1ncc(Cl)c(Nc2ccccc2S(=O)(=O)C(C)C)n1 [NVP-TAE684] (first compound 2 µM, partner dose 0.08 µM)",72.7%
11,"Cn1cncc1[C@@](N)(c1ccc(Cl)cc1)c1ccc2c(c1)c(-c1cccc(Cl)c1)cc(=O)n2C [tipifarnib] + CCc1ccc(CCOc2ccc(CC3SC(=O)NC3=O)cc2)nc1 [pioglitazone] (first compound 0.01 µM, partner dose 2 µM)",85.6%
12,"O=C(CCCCCCC(=O)Nc1ccccc1)NO [vorinostat] + COc1cc(N2CCC(N3CCN(C)CC3)CC2)ccc1Nc1ncc(Cl)c(Nc2ccccc2S(=O)(=O)C(C)C)n1 [NVP-TAE684] (first compound 0.08 µM, partner dose 0.08 µM)",271%
13,"O=C(Nc1cccc(Cl)c1)Nc1ncc(CCNc2ncnc3ccsc23)s1 + COC(=O)c1sccc1S(=O)(=O)Nc1ccc(Nc2ccccc2)cc1OC [GSK0660] (first compound 0.0008 µM, partner dose 1 µM)",88.2%
14,"C=CCn1c(=O)c2cnc(Nc3ccc(N4CCN(C)CC4)cc3)nc2n1-c1cccc(C(C)(C)O)n1 + CC(C)CCN1c2nc(Nc3cc(F)c(O)c(F)c3)ncc2N(C)C(=O)C1C [BID1870] (first compound 0.02 µM, partner dose 0.2 µM)",116%
15,"CO[C@@H]1[C@H](N(C)C(=O)c2ccccc2)C[C@H]2O[C@]1(C)n1c3ccccc3c3c4c(c5c6ccccc6n2c5c31)C(=O)NC4 [Midostaurin] + O=S(=O)(c1ccccc1)N(CC(F)(F)F)c1ccc(C(O)(C(F)(F)F)C(F)(F)F)cc1 [T0901317] (first compound 0.08 µM, partner dose 1.4 µM)",108%
16,"Nc1cccc2c1CN(C1CCC(=O)NC1=O)C2=O (configuration not stated) [lenalidomide] + COC(=O)c1sccc1S(=O)(=O)Nc1ccc(Nc2ccccc2)cc1OC [GSK0660] (first compound 1 µM, partner dose 1 µM)",227%

row,SMILES,cleaved PARP positive nuclei fraction
1,"O=C(Nc1cccc(Cl)c1)Nc1ncc(CCNc2ncnc3ccsc23)s1 + CCc1ccc(CCOc2ccc(CC3SC(=O)NC3=O)cc2)nc1 [pioglitazone] (first compound 0.0008 µM, partner dose 2 µM)",38%
2,"COCC[n+]1c2c(n(Cc3cnccn3)c1C)C(=O)c1ccccc1C2=O + O=c1cc(-c2cccc3c2Sc2ccccc2S3)oc(N2CCOCC2)c1 [KU55933] (first compound 0.0004 µM, partner dose 1 µM)",34.4%
3,"Nc1cccc2c1CN(C1CCC(=O)NC1=O)C2=O (configuration not stated) [lenalidomide] + COc1ccc(-c2ccc3c(N4CCOCC4)nc(N4C[C@@H](C)O[C@@H](C)C4)nc3n2)cc1CO [KU0063794] (first compound 1 µM, partner dose 0.02 µM)",216%
4,"NC(=O)Nc1cc(-c2cccc(F)c2)sc1C(=O)N[C@H]1CCCNC1 + Cn1cc(/C=C2\C(=O)Nc3cccnc32)c2ccccc21 [GW441756] (first compound 0.02 µM, partner dose 0.4 µM)",107%
5,"COc1cc(Nc2ncc(F)c(Nc3ccc4c(n3)NC(=O)C(C)(C)O4)n2)cc(OC)c1OC [Tamatinib] + COc1cc(N2CCC(N3CCN(C)CC3)CC2)ccc1Nc1ncc(Cl)c(Nc2ccccc2S(=O)(=O)C(C)C)n1 [NVP-TAE684] (first compound 0.4 µM, partner dose 0.08 µM)",47.2%
6,"NC(=O)Nc1cc(-c2cccc(F)c2)sc1C(=O)N[C@H]1CCCNC1 + CCN(CC)CCCCNc1ncc2cc(-c3cc(OC)cc(OC)c3)c(NC(=O)NC(C)(C)C)nc2n1 [PD173074] (first compound 0.02 µM, partner dose 0.1 µM)",91.6%
7,"O=C(CCCCCCC(=O)Nc1ccccc1)NO [vorinostat] + CCCCCCCCCCCC1=C(O)C(=O)C=C(O)C1=O [Embelin] (first compound 0.08 µM, partner dose 1.2 µM)",56.5%
8,"O=C(Nc1cccc(Cl)c1)Nc1ncc(CCNc2ncnc3ccsc23)s1 + COc1ccc(-c2ccc3c(N4CCOCC4)nc(N4C[C@@H](C)O[C@@H](C)C4)nc3n2)cc1CO [KU0063794] (first compound 0.0008 µM, partner dose 0.02 µM)",176%
9,"Cc1nc(Nc2ncc(C(=O)Nc3c(C)cccc3Cl)s2)cc(N2CCN(CCO)CC2)n1 [dasatanib] + CCN(CC)CCCCNc1ncc2cc(-c3cc(OC)cc(OC)c3)c(NC(=O)NC(C)(C)C)nc2n1 [PD173074] (first compound 0.004 µM, partner dose 0.1 µM)",431%
10,"CC1(C)NC(=O)N(c2ccc([N+](=O)[O-])c(C(F)(F)F)c2)C1=O [nilutamide] + COc1ccc(COc2ccc(Cc3cnc(N)nc3N)cc2OC)cc1 [GW2580] (first compound 1 µM, partner dose 1 µM)",44.9%
11,"COCC[n+]1c2c(n(Cc3cnccn3)c1C)C(=O)c1ccccc1C2=O + CCc1ccc(CCOc2ccc(CC3SC(=O)NC3=O)cc2)nc1 [pioglitazone] (first compound 0.0004 µM, partner dose 2 µM)",44.6%
12,"O=C(CCCCCCC(=O)Nc1ccccc1)NO [vorinostat] + COc1ccc(-c2ccc3c(N4CCOCC4)nc(N4C[C@@H](C)O[C@@H](C)C4)nc3n2)cc1CO [KU0063794] (first compound 0.08 µM, partner dose 0.02 µM)",125%
13,"COc1cc(Nc2ncc(F)c(Nc3ccc4c(n3)NC(=O)C(C)(C)O4)n2)cc(OC)c1OC [Tamatinib] + O=S(=O)(c1ccccc1)N(CC(F)(F)F)c1ccc(C(O)(C(F)(F)F)C(F)(F)F)cc1 [T0901317] (first compound 0.4 µM, partner dose 1.4 µM)",128%
14,"NC(=O)Nc1cc(-c2cccc(F)c2)sc1C(=O)N[C@H]1CCCNC1 + O=S(=O)(c1ccccc1)N(CC(F)(F)F)c1ccc(C(O)(C(F)(F)F)C(F)(F)F)cc1 [T0901317] (first compound 0.02 µM, partner dose 1.4 µM)",51.9%
15,"Cn1nnc2c(C(N)=O)ncn2c1=O [temozolomide] + COc1ccc(-c2ccc3c(N4CCOCC4)nc(N4C[C@@H](C)O[C@@H](C)C4)nc3n2)cc1CO [KU0063794] (first compound 2 µM, partner dose 0.02 µM)",543%
16,"Nc1cccc2c1CN(C1CCC(=O)NC1=O)C2=O (configuration not stated) [lenalidomide] + c1cc(-c2cnn3cc(-c4ccc(OCCN5CCCCC5)cc4)cnc23)ccn1 [Dorsomorphin] (first compound 1 µM, partner dose 0.4 µM)",206%

# Rewritten bar-delimited: part of the list above
row | SMILES | cleaved PARP positive nuclei fraction
4 | NC(=O)Nc1cc(-c2cccc(F)c2)sc1C(=O)N[C@H]1CCCNC1 + Cn1cc(/C=C2\C(=O)Nc3cccnc32)c2ccccc21 [GW441756] (first compound 0.02 µM, partner dose 0.4 µM) | 107%
5 | COc1cc(Nc2ncc(F)c(Nc3ccc4c(n3)NC(=O)C(C)(C)O4)n2)cc(OC)c1OC [Tamatinib] + COc1cc(N2CCC(N3CCN(C)CC3)CC2)ccc1Nc1ncc(Cl)c(Nc2ccccc2S(=O)(=O)C(C)C)n1 [NVP-TAE684] (first compound 0.4 µM, partner dose 0.08 µM) | 47.2%
